Measurements taken from paper PMC3842983.
These are yes or no findings as the source states them, for the method shown. Binding seen in cells or lysates may run through a third protein. Some entries that bind do so weakly or less than the wild type.

Amino acid sequences for entries named in this document (tags omitted).
UniProt Q96S59: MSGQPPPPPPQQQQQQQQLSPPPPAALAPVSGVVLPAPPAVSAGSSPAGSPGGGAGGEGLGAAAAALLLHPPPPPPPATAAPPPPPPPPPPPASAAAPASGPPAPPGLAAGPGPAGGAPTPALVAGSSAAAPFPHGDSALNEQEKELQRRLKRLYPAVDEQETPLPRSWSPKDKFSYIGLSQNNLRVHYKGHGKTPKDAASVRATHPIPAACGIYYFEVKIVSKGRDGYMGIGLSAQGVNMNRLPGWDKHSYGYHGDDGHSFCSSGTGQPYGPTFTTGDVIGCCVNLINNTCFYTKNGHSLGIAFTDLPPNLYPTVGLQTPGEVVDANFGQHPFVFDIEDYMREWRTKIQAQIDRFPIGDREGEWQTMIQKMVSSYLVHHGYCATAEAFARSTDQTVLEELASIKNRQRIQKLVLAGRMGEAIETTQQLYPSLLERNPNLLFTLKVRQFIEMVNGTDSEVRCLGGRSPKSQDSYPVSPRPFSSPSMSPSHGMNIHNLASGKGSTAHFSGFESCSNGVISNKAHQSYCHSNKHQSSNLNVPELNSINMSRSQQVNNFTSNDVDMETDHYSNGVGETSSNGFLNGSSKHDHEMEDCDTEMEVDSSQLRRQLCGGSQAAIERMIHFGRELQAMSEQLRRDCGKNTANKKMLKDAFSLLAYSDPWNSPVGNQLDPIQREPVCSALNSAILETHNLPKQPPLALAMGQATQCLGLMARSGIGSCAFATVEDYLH
UniProt Q9JKC6: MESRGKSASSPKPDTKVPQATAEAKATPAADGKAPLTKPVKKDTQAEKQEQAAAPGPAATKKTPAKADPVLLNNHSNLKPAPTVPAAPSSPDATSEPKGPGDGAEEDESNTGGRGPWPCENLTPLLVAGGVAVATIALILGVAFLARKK
UniProt Q9Z188: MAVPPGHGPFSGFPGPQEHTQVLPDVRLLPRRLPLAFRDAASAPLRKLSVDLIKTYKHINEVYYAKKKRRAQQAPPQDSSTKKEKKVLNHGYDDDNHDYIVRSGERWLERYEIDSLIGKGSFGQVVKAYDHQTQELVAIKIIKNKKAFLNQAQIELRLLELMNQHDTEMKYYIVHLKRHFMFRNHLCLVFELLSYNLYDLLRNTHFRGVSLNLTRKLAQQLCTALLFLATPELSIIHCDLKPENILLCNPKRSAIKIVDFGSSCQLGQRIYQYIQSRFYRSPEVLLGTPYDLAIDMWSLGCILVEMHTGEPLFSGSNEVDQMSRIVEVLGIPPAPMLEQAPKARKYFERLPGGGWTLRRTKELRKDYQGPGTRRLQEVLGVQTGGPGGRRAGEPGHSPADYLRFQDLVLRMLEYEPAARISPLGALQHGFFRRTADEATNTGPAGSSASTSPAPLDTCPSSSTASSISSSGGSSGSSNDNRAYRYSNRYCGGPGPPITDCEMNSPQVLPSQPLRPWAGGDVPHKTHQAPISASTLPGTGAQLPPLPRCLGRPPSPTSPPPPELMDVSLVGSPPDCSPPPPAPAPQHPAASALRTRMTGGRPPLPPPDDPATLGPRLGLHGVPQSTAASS

Biological target: human FLAG-tagged RanBPM full length (human) (UniProt Q96S59)
Assay: co-IP; HEK293T cells double or triple transfected; immunoprecipitation of FLAG-RanBPM with rabbit polyclonal anti-FLAG and protein A agarose from 2 mg lysate; Western blot

For “mouse Cend1 full length (expressed in HEK293T cells) (from UniProt Q9JKC6 1-149)”, which binding is on record?
The binding was “binds”.

With “mouse Dyrk1B (dual specificity tyrosine-phosphorylation regulated kinase 1B) full length (from UniProt Q9Z188 1-629) (enzyme)” as the substance, how does the binding read?
Its binding is “binds”.
